PubChem BioAssay AID504784, Drosophila RNAi Screening Center – 2011

Purpose: 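Fly genes whose silencing alters how much lipid cells keep in droplets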 (primary screen)
System: Drosophila Kc167 embryonic cells
Reagent: long dsRNA against Drosophila genes, about 250 ng dsRNA per well
Duration: 4 days
Conditions: cells fed 400 µM oleic acid bound to BSA
Measurement: 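Cells imaged and segmented; ratio of lipid droplet area to nuclear area, log-transformed, then normalised as a B-score over the screen; higher means more stored lipid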
Direction: droplet/nuclear area B-score: higher = more stored lipid (overstorage)
The screen tested about 17,000 reagents; shown is a random part of those that have a named target and a result. 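Each column is one replicate's B-score; the combined score over replicates was not deposited, so single values may mislead.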 The numbers tell different reagents against one gene apart. Names joined by + are all predicted targets of the reagent.

target gene	dsRNA no.	droplet/nuclear area B-score, replicate 1	droplet/nuclear area B-score, replicate 2	droplet/nuclear area B-score, replicate 3
tkv + CR14033 + tRNA:Asp-GTC-2-1 + 1 more	1	0.0344	-0.822	
CG13625	1	2.39	-0.422	
CG14502	1	0.0293	0.122	
CG15147	1	-1.08	-0.901	0.121
CG15147	2	-0.0724	-0.288	
CG15642	1	0.318	0.0218	
CG34461	1	-2.46	0.376	
CG30458	1	-0.957	-0.395	0.276
CG3927	1	0.991	-1.49	
CG3927	2	0.76	1.11	
CG14326	1	1.2	-0.707	
ttm3 (tiny tim 3)	1	0.498	-0.03	
Diedel3 (Diedel 3)	1	-0.154	-0.804	
CG6425	1	0.338		
Sf3a2 (Splicing factor 3a subunit 2)	1	-1.32	-1.07	
CG32276	1	-0.549	-1.14	
Ten-m (Tenascin major)	1	2.03	-0.752	
Ten-m (Tenascin major)	2	-0.117	0.422	
CG31782 (retired record)	1	0.0747	0.114	
CG31782 (retired record)	2	-0.293	1.28	
CG12134	1	-1.89	0.308	
CG32152	1	0.0292	0.115	
PolD1 (DNA polymerase delta subunit 1)	1	1.52	1.73	
Taf6 (TBP-associated factor 6)	1	-0.4	-0.0553	1.01
AGO3 (Argonaute 3)	1	-1.1	1.1	
chn (charlatan)	1	0.371	1.44	
Dic3	1	-0.616	-1.15	
ath (athos)	1	0.067	0.722	
CG7213	1	0.7	-1.12	
CG14419	1	-1.04	-1.04	
Obp56d (Odorant-binding protein 56d)	1	0.971	-1.61	
CG1909	1	0.496	0.681	
Sgp (Sgroppino)	1	-1.31	0.0766	
Sik3 (Salt-inducible kinase 3)	1	-0.619	0.00306	
Sik3 (Salt-inducible kinase 3)	2	-0.00334	-0.538	
Gpat4 (Glycerol-3-phosphate acyltransferase 4)	1	-0.798	-4.31	
Hs3st-A (Heparan sulfate 3-O sulfotransferase-A)	1	3.37	5.36	
Hs3st-A (Heparan sulfate 3-O sulfotransferase-A)	2	0.188	-2.41	
Hs3st-A (Heparan sulfate 3-O sulfotransferase-A)	3	-0.0197	-0.537	
fok (fledgling of Klp38B)	1	-0.617	-1.08	
nompA (no mechanoreceptor potential A)	1	-1.55	0.121	
Ugt301D1 (UDP-glycosyltransferase family 301 member D1)	1	-1.27	0.0188	
Oatp33Eb (Organic anion transporting polypeptide 33Eb)	1	-0.385	-1.31	
scaf (scarface)	1	0.00976	-0.313	
CG6330	1	2.78	5.9	
CG7691	1	1.05	1.43	
ovo	1	0.822	8.03	-0.971
ovo	2		0.126	
RabX4	1	1.83	0.699	
IntS6 (Integrator 6)	1	3.09	2.43	1.88
SF2 (Splicing factor 2)	1	1.56	1.41	
CG1789	1	-0.381	-1.66	-0.164
CG16970 (retired record)	1	-1.34	-0.744	
Drip	1	-1.54	-0.322	
Gba1a (Glucocerebrosidase 1a)	1	-0.0415	-4.27	
CG5068	1	-0.0532	2.95	

Part of the list above, set out differently.
| target gene | dsRNA no. | droplet/nuclear area B-score, replicate 1 | droplet/nuclear area B-score, replicate 2 | droplet/nuclear area B-score, replicate 3 |
| --- | --- | --- | --- | --- |
| Sik3 (Salt-inducible kinase 3) | 2 | -0.00334 | -0.538 | – |
| Gpat4 (Glycerol-3-phosphate acyltransferase 4) | 1 | -0.798 | -4.31 | – |
| Hs3st-A (Heparan sulfate 3-O sulfotransferase-A) | 1 | 3.37 | 5.36 | – |
| Hs3st-A (Heparan sulfate 3-O sulfotransferase-A) | 2 | 0.188 | -2.41 | – |
| Hs3st-A (Heparan sulfate 3-O sulfotransferase-A) | 3 | -0.0197 | -0.537 | – |
